According to the supplement of paper PMC10338343:
± gives the standard deviation. The list shows a part of the results, in another mix than the full data. Many of these values have a large error.

Each sequence was assayed on MILI (PIWIL2) piRISC loaded with Kctd7 piRNA (26 nt) (assay: pre-steady-state target cleavage rate (min^-1); MIWI and MILI are mouse PIWI proteins and EfPiwi is from a freshwater sponge; tags in brackets are library labels; higher = faster piRNA-guided slicing of the target). Conditions: guide: Kctd7 piRNA 5'p-UGUUAAUCUCUCAGAGAAGGUGACAG; auxiliary factor: 500 nM mouse GTSF1.
How it was run: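 Sequencing of uncleaved targets, normalised to depth and to weakly complementary targets, was the readout of this Cleave-'n-Seq assay. A transcribed, DNA-blocked target RNA library (0.1 nM) was mixed with 1 nM active affinity-purified piRISC carrying one synthetic guide, with or without 500 nM GTSF1 partner protein, in HEPES–potassium acetate buffer at 33 °C for 0–8 or 0–960 min. Three trials were pooled, k3 was capped at 0.0001 min^-1, and a burst-and-steady-state fit gave the pre-steady-state cleavage rate.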
In the case of UAGUGACAGACCUUCUGAGAGAGAUUUUGA, the “pre-steady-state target cleavage rate” value is reported as 0.000539 ± 0.016.
In the case of UAGUGACAGUCCUUCUCUGAGUGAAUAACA, the “pre-steady-state target cleavage rate” value is reported as 0.000155 ± 0.016.
UAGUGACUCACCUUCUCUGAGUGAUUUUGA was tested, and the “pre-steady-state target cleavage rate” value was 0.000532 ± 0.016.
With UAGUGACAGUGGAACUCUGAGACAUUAUCA the “pre-steady-state target cleavage rate” value was 0.00127 ± 0.015.
With UAGUGACAGUGGUUCUCUGAGAGACUAACA the “pre-steady-state target cleavage rate” value was 0.000316 ± 0.0089.
For UAGUGACUCACCUUGUCUGAGAGAUUUUGA, the “pre-steady-state target cleavage rate” value was 0.000692 ± 0.022.
UAGUGACAGUCCUUCUCUGACUCAUUAUGA was tested, and the “pre-steady-state target cleavage rate” value was 0.00021 ± 0.01.
For UAGUGACAGUCCUUCUCUGAGAGAAUUACA, the “pre-steady-state target cleavage rate” value was 0.000434 ± 0.018.
In the case of UAGUGACAGUCGUUCUCUGAGAGAUUAUGA, the “pre-steady-state target cleavage rate” value is reported as 0.00102 ± 0.0076.
For UAGUGACUCAGCUUCUCUGAGAGAUUUUGA, the “pre-steady-state target cleavage rate” value was 0.000781 ± 0.0093.
In the case of UAGUGACAGUCCUUCUGUGAGACAUUAACA, the “pre-steady-state target cleavage rate” value is reported as 0.00233 ± 0.0027.
In the case of UAGUGACAGUGGAACUCUGAGAGAUAUAACA, the “pre-steady-state target cleavage rate” value is reported as 0.000112 ± 0.065.
In the case of UAGUGACAGUGCUUCUCUGACAGAUUAACA, the “pre-steady-state target cleavage rate” value is reported as 0.00306 ± 0.0034.
With UAGUGACACAGCUUCUCUGAGAGAUAUUGA the “pre-steady-state target cleavage rate” value was 0.00045 ± 0.015.
For UAGUGACAGUCCUUGUCUGAGUGAUUAACA, the “pre-steady-state target cleavage rate” value was 0.00245 ± 0.0033.
With UAGUGACAGUGGAACACUGAGACAUUAACA the “pre-steady-state target cleavage rate” value was less than 0.0001.
UAGUCUGUCACCUUCUCUGAGUCAUUAACA was tested, and the “pre-steady-state target cleavage rate” value was 0.00172 ± 0.0036.
UAGUGUGUCACCUUCUCUCUGAGAUUAUGA was tested, and the “pre-steady-state target cleavage rate” value was 0.00157 ± 0.0072.
With UAGUCUGUCACCAUCUCUGACAGAUUAACA the “pre-steady-state target cleavage rate” value was 0.00219 ± 0.0049.
In the case of UAGUGACUCACCUUCUCUGAGAGCUUAACA, the “pre-steady-state target cleavage rate” value is reported as 0.156 ± 0.022.
In the case of UAGUGUGUCACCUUCUCGGAGAGAUUAACA, the “pre-steady-state target cleavage rate” value is reported as 0.153 ± 0.017.
In the case of UAGUGACAGACCUUCUCUGAGUCUUUAUGA, the “pre-steady-state target cleavage rate” value is reported as 0.000359 ± 0.031.
With UAGUGUGUCACCUUGACUGAGAGAUUAAGA the “pre-steady-state target cleavage rate” value was 0.000821 ± 0.013.
In the case of UAGUGUGUCACCUUCUGUGAGAGAUAUUGA, the “pre-steady-state target cleavage rate” value is reported as 0.00247 ± 0.0059.
UAGUGACACACCUUCUCUGAGUGAUAAACA was tested, and the “pre-steady-state target cleavage rate” value was 0.000894 ± 0.011.
For UAGUGACAGACCUACUCAGAGAGAUUAACA, the “pre-steady-state target cleavage rate” value was 0.00424 ± 0.0043.
With UAGUGACAGUGGAAGUCUGAGAGAGUAACA the “pre-steady-state target cleavage rate” value was 0.000103 ± 0.045.
With UAGUGACAGACCAUCUCUGAGAGAUAAACA the “pre-steady-state target cleavage rate” value was 0.00361 ± 0.0041.
For UAGUGACAGUCCUUCUCUGAGAGUUUAUGA, the “pre-steady-state target cleavage rate” value was 0.000175 ± 0.042.
For UAGUCUGUCUGGUUCUCUGAGAGAUUAUGA, the “pre-steady-state target cleavage rate” value was 0.00125 ± 0.0042.
UAGUGAGUGACCUUCUCUGAGAGAUUAACA was tested, and the “pre-steady-state target cleavage rate” value was 0.157 ± 0.0097.
With UAGUGACAGACCUUCAGAGAGAGAUUAUGA the “pre-steady-state target cleavage rate” value was 0.000511 ± 0.022.
In the case of UAGUCUGUCACCUUCUCUGAGAGAUUAAUCA, the “pre-steady-state target cleavage rate” value is reported as 0.258 ± 0.041.
For UAGUGUGUCACCUUCUCUCUGAGAUUAAGA, the “pre-steady-state target cleavage rate” value was 0.00143 ± 0.0099.
For UAGUGAGUCACCUUCUUGAGAGAUUAACA, the “pre-steady-state target cleavage rate” value was 0.0386 ± 0.014.
With UAGUGACUCACCAUCUCUGAGUGAUUAACA the “pre-steady-state target cleavage rate” value was 0.00224 ± 0.0041.
For UAGUGACAGACCUUCUCUGAGACGAUUAACA, the “pre-steady-state target cleavage rate” value was 0.0176 ± 0.0081.
With UAGUGACAGACCUUGUCUGAGAGAUUAUGA the “pre-steady-state target cleavage rate” value was 0.000569 ± 0.017.
For UAGUGACACACCAUCUCUGAGAGAUUUUGA, the “pre-steady-state target cleavage rate” value was 0.00176 ± 0.007.
In the case of UAGUGAGUCUGCUUCUCUGAGAGAUAUUGA, the “pre-steady-state target cleavage rate” value is reported as 0.000344 ± 0.013.
UAGUGACAGUGCAUCUCUGAGAGAAUAACA was tested, and the “pre-steady-state target cleavage rate” value was 0.000417 ± 0.01.
With UAGUCUGUCACGAACUCUGAGAGAUUAUGA the “pre-steady-state target cleavage rate” value was 0.000116 ± 0.023.
With UAGUGACAGUCCUUCUCUGUGAGAAUAACA the “pre-steady-state target cleavage rate” value was 0.00171 ± 0.0043.
With UAGUGACAGUGGAAGAGUGACAGAAUAACA the “pre-steady-state target cleavage rate” value was 0.000174 ± 0.029.
With UAGUGACAGACCUUCUCUGUGAGAUUAUGA the “pre-steady-state target cleavage rate” value was 0.00185 ± 0.0054.
With UAGUGUGUCACCUUCUCUGACAGAUAAACA the “pre-steady-state target cleavage rate” value was 0.00184 ± 0.0084.
With UAGUGACAGACCUUCUCUGUGUGAUUAACA the “pre-steady-state target cleavage rate” value was 0.00168 ± 0.0072.
For UAGUCUGUCACCUUCUGUGACAGAUUAACA, the “pre-steady-state target cleavage rate” value was 0.0018 ± 0.0071.
UAGUGACUCACCUUCUCUGAGUCAUAUUGA was tested, and the “pre-steady-state target cleavage rate” value was 0.000552 ± 0.012.
With UAGUGACAGACCUCUCUCUGAGAGAUUAACA the “pre-steady-state target cleavage rate” value was 0.0375 ± 0.0076.
UAGUGAGUCACCUUGACUGAGAGAUUAUGA was tested, and the “pre-steady-state target cleavage rate” value was 0.00088 ± 0.012.
UAGUGACUCACCUUCAGUGAGAGAUUAAGA was tested, and the “pre-steady-state target cleavage rate” value was 0.00201 ± 0.0074.
For UAGUGACAGUGGAACUCUGACAGAUUAUCA, the “pre-steady-state target cleavage rate” value was less than 0.0001.
For UAGUGACAGUGCUUCUCUGAGAGAUUUUCA, the “pre-steady-state target cleavage rate” value was 0.000856 ± 0.0072.
UAGUGACAGACCUUCUCUGAGACUAUAUGA was tested, and the “pre-steady-state target cleavage rate” value was 0.000226 ± 0.047.
UAGUGACAGUGGUUCUCUGAUAGAUUAACA was tested, and the “pre-steady-state target cleavage rate” value was 0.000668 ± 0.0079.
In the case of UAGUGACAGUCCUUCUCUGACGAGAUUAACA, the “pre-steady-state target cleavage rate” value is reported as 0.00149 ± 0.0044.
UAGUGACAGUGGAAGACUGAGAGAUUAACA was tested, and the “pre-steady-state target cleavage rate” value was 0.000114 ± 0.022.
With UAGUGACAGUGCUUCUCUGAGAGAAUAACA the “pre-steady-state target cleavage rate” value was 0.0016 ± 0.0037.
For UAGUGACAGUCCUACUCUGAGAGAAUAACA, the “pre-steady-state target cleavage rate” value was 0.000271 ± 0.0078.
UAGUGACUCAGGAUCUCUGAGAGAUUAAGA was tested, and the “pre-steady-state target cleavage rate” value was 0.000608 ± 0.011.
With UAGUGACAGUGGUUCUCUGAGAGAUUAAAA the “pre-steady-state target cleavage rate” value was 0.000147 ± 0.026.
UAGUCUGAGACCUUCUCUGAGAGAUAUUGA was tested, and the “pre-steady-state target cleavage rate” value was 0.00111 ± 0.006.
UAGUGACAGUGGUUCUCUCAGAGAUUAACA was tested, and the “pre-steady-state target cleavage rate” value was 0.00157 ± 0.0043.
For UAGUGACAGUCCUUCUCUGAGAGUUAAACA, the “pre-steady-state target cleavage rate” value was 0.000351 ± 0.013.
UAGUGACAGUGGAAGACUGAGAGUAUAACA was tested, and the “pre-steady-state target cleavage rate” value was 0.000185 ± 0.032.
For UAGUGAGUCAGCUUCUCUGAGAGAUUAACA, the “pre-steady-state target cleavage rate” value was 0.158 ± 0.013.
With UAGUGACACACCUUCUGACAGAGAUUAACA the “pre-steady-state target cleavage rate” value was 0.00257 ± 0.0074.
With UAGUGACAGUGGUUCUCUCUCAGAUUAACA the “pre-steady-state target cleavage rate” value was 0.000103 ± 0.028.
With UAGUCUGUCAGGAUCUCUGAGAGAUUUUGA the “pre-steady-state target cleavage rate” value was 0.00143 ± 0.006.
With UAGUGACAGAGCUUCUCUGAGUGAUUAACA the “pre-steady-state target cleavage rate” value was 0.00171 ± 0.008.
For UAGUGACAGUGCUUCUCUGAGAGUUUAUCA, the “pre-steady-state target cleavage rate” value was 0.00045 ± 0.012.
For UAGUGACUCACCUUCUCUGAGAGAUUUUCA, the “pre-steady-state target cleavage rate” value was 0.0728 ± 0.019.
In the case of UAGUGACAGUGGUUCUCUGACUCAUUAACA, the “pre-steady-state target cleavage rate” value is reported as 0.000213 ± 0.018.
With UAGUGUGUCAGGUUCUCUGAGAGAUAUUGA the “pre-steady-state target cleavage rate” value was 0.000906 ± 0.0081.
For UAGUGACAGUGCUACUCAGAGAGAUUAACA, the “pre-steady-state target cleavage rate” value was 0.00115 ± 0.0049.
In the case of UAGUGAGUCACCUUCUCUCUCAGAUUAACA, the “pre-steady-state target cleavage rate” value is reported as 0.00261 ± 0.005.
In the case of UAGUCUGUCACCUUCUCUCUCAGAUUAACA, the “pre-steady-state target cleavage rate” value is reported as 0.00263 ± 0.0043.
For UAGUGACAGUGCUUCUCUCAGAGAUAAACA, the “pre-steady-state target cleavage rate” value was 0.00143 ± 0.0057.
In the case of UAGUGACUCACCUACUCUGAGAGAUUUUGA, the “pre-steady-state target cleavage rate” value is reported as 0.00259 ± 0.0046.
With UAGUGUGCACCUUCUCUGAGAGAUUAACA the “pre-steady-state target cleavage rate” value was 0.196 ± 0.024.
With UAGUGACAGUCCUUCUCUGACAGAUUAUCA the “pre-steady-state target cleavage rate” value was 0.000271 ± 0.017.
UAGUGACAGUCCUUCAGUGAGAGAUUAAGA was tested, and the “pre-steady-state target cleavage rate” value was 0.00278 ± 0.0043.
For UAGUGACAGUCCAUCUCUGAGAGAUAAACA, the “pre-steady-state target cleavage rate” value was 0.00193 ± 0.0032.
In the case of UAGUGACAGUGGAAGUCUGAGAGUUUAAGA, the “pre-steady-state target cleavage rate” value is reported as 0.0001 ± 0.053.
For UAGUGACAGUGGAAGAGAGAGACAUUAACA, the “pre-steady-state target cleavage rate” value was 0.000118 ± 0.057.
With UAGUGACAGACCUUCUCUGAGUAGAUUAACA the “pre-steady-state target cleavage rate” value was 0.005 ± 0.0051.
In the case of UAGUGACAGUGGUUCUACUGAGAGAUUAACA, the “pre-steady-state target cleavage rate” value is reported as 0.000258 ± 0.01.
In the case of UAGUGACAGUGGAAGUCUGAGAGUUAAACA, the “pre-steady-state target cleavage rate” value is reported as less than 0.0001.
UAGUGACAGUCCUUCUCUGAGAGAUUUUGA was tested, and the “pre-steady-state target cleavage rate” value was 0.000441 ± 0.013.
With UAGUGAGUCACCAACUCUGAGAGAUAUUGA the “pre-steady-state target cleavage rate” value was 0.001 ± 0.0097.
In the case of UAGUGACAGUGCAACUCUGAGAGAUUAACA, the “pre-steady-state target cleavage rate” value is reported as 0.00194 ± 0.0039.
